For some assays here: A negative result means that nothing was seen under these conditions. Tags and fusion partners may be left off the protein sequences shown.
Legend:
Assay in all cases: activity in cells
[1] = test system: T1, Vika (Vibrio coralliilyticus ATCC BAA-450); conditions: protein in cells, only the site is given
T1 sequence (limits assumed): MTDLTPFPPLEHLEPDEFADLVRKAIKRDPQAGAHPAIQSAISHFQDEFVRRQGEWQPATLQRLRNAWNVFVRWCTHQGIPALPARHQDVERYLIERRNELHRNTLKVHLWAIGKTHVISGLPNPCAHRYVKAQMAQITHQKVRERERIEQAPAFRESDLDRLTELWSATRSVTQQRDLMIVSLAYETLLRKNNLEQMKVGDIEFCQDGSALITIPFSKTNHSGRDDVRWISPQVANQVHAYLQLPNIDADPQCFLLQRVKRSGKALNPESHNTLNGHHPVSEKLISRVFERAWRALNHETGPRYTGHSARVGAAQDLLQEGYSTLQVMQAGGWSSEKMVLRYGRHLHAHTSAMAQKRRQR

Panto (Pantoea sp. aB) = test system: T2, Panto (Pantoea sp. aB); conditions: E. coli excision reporter, arabinose induced; protein in cells; only the site is given
T2 sequence (limits assumed): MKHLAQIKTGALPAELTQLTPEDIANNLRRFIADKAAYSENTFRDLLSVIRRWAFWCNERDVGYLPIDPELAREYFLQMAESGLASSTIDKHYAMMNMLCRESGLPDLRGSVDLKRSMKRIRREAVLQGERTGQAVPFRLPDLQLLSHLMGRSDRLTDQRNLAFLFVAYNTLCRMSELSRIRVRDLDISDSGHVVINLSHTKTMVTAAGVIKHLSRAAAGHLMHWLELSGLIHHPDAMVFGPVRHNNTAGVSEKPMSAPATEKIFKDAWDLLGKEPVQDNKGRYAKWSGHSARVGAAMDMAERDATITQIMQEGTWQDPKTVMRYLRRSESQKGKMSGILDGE

[2] = test system: T3, VCre (Vibrio plasmid p0908); conditions: protein in cells, only the site is given
T3 sequence (limits assumed): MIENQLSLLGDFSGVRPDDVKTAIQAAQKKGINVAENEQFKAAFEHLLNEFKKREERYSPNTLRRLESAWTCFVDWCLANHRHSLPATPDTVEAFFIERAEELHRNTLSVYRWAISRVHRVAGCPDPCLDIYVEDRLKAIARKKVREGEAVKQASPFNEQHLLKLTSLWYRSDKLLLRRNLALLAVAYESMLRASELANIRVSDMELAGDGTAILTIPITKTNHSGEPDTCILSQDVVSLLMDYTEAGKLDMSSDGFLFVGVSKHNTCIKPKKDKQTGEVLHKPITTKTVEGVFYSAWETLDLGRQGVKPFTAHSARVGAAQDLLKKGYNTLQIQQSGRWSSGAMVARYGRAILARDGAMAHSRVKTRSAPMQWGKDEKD

Cre (Bacteriophage P1) = molecular target: T4, Cre (Bacteriophage P1) (UniProt P06956); conditions: protein in cells, only the site is given
T4 sequence (limits assumed): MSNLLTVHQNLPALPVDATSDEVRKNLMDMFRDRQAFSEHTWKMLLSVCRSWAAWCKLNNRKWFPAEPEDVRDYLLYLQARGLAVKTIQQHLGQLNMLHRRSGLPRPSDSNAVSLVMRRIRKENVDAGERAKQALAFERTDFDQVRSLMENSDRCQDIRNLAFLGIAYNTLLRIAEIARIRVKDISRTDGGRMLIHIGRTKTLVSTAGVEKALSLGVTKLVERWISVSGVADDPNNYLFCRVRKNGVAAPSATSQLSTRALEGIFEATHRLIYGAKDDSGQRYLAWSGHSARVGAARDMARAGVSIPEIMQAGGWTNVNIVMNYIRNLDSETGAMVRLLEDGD

[3] = test system: T5, Nigri (Vibrio nigripulchritudo); conditions: E. coli excision reporter, arabinose induced; protein in cells; only the site is given
T5 sequence (limits assumed): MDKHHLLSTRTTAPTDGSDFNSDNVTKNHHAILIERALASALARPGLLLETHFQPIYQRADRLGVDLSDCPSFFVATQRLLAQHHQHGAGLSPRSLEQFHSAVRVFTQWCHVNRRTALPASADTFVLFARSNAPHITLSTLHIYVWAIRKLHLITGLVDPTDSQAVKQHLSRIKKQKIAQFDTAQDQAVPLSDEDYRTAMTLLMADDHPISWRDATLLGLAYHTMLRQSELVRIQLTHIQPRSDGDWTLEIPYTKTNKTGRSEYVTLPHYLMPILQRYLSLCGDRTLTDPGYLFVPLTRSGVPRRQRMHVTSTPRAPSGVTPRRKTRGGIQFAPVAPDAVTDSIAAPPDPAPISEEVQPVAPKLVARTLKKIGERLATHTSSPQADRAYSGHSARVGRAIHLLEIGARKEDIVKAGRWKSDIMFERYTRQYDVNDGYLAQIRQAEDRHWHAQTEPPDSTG

[4] = test system: T6, Dre (Enterobacteria phage D6); conditions: E. coli excision reporter; protein in cells; only the site is given
T6 sequence (limits assumed): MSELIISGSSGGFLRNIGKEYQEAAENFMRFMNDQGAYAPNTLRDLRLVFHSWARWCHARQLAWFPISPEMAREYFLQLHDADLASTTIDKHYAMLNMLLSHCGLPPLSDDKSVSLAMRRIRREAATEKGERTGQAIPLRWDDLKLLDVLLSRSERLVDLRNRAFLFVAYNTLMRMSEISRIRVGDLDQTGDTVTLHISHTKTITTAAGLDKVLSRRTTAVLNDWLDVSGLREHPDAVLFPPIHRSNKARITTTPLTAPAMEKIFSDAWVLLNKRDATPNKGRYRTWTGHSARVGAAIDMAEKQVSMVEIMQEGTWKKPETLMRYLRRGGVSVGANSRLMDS

[5] = E. coli, 100 ug/ml arabinose, variant of vox
[6] = E. coli, prominent activity, variant of loxP

Question: How did the “activity on this sequence” value [1, 5] turn out when “AACAGCTTTGAGAGCTGTTGCTCTCAGCTGAATT (double strand) [voxCMp92]” was run?
Answer: not active

Question: For “AACAGGACTGAGATAAAACAGTCTCAGACAGCAT (double strand) [voxCHp3]”, which “activity on this sequence” value [1, 5] is on record?
Answer: not active

Question: For “GAAACTTTAAATAATAAGTCTTATATAAAGTTTC (double strand) [pox]”, which “activity on this sequence” value (Panto (Pantoea sp. aB)) is on record?
Answer: active

Question: How did the “activity on this sequence” value [1, 5] turn out when “AAGAGAACTGAGAAAATATTCTCTCAGAGGGAAT (double strand) [voxCHX]” was run?
Answer: not active

Question: How did the “activity on this sequence” value ([2]; E. coli, arabinose titration and lacZ reporter) turn out when “TCAATTTCCGAGAATGACAGTTCTCAGAAATTGA (double strand) [VloxP]” was run?
Answer: active

Question: And the “activity on this sequence” value ([1]; E. coli excision reporter)?
Answer: not active

Question: Which “activity on this sequence” value ([1]; E. coli excision reporter) does the source give for “TAACTTTAAATAATTGGCATTATTTAAAGTTA (double strand) [rox]” here?
Answer: not active

Question: For “CAGAGCTCTGAGACTTTGTGTTCTCAAAGATATC (double strand) [voxCH18]”, which “activity on this sequence” value [1, 5] is on record?
Answer: not active

Question: Which “activity on this sequence” value (Cre (Bacteriophage P1); [6]) does the source give for “GTAACTGAGTATATGCATATATATACGTATATAT (double strand) [loxM5]” here?
Answer: active

Question: “ACAACCATTTATAATATATAATATATGATGTTAT (double strand) [loxhXp22]” was tested. Which “activity on this sequence” value (Cre (Bacteriophage P1); [6]) did it give?
Answer: active

Question: For “TGAATGTCCTATAATTACACTTATAGGACATTCA (double strand) [nox]”, which “activity on this sequence” value [3] is on record?
Answer: active

Question: Which “activity on this sequence” value [1, 5] does the source give for “AAGAGGTGTGAGACTGAATTTTCTCAGTCAGGTT (double strand) [voxCH21]” here?
Answer: not active

Question: What does the source list for “AATAGGTCTGAGAACGCCCATTCTCAGACGTATT (double strand) [vox]”?
Answer: activity on this sequence ([2]; E. coli excision reporter): not active; activity on this sequence ([1]; E. coli excision of ~1 kb between two vox sites, arabinose induced): active; activity on this sequence [4]: not active; activity on this sequence (Cre (Bacteriophage P1); E. coli excision reporter): not active

Question: How did the “activity on this sequence” value ([1]; E. coli excision reporter) turn out when “ATAACTTCGTATAGCATACATTATACGAAGTTAT (double strand) [loxP]” was run?
Answer: not active

From patent US20150176012
